According to publication doi:10.1101/2024.11.24.624999:
Where two headings read alike, the source gives them in different places. Results are given in words; binding and its absence hold for the method and conditions named. Some binding calls cover weakened binding; strength is not graded here.

Sequences of proteins named here, by UniProt entry; tags and fusion partners are left off.
UniProt Q84T08: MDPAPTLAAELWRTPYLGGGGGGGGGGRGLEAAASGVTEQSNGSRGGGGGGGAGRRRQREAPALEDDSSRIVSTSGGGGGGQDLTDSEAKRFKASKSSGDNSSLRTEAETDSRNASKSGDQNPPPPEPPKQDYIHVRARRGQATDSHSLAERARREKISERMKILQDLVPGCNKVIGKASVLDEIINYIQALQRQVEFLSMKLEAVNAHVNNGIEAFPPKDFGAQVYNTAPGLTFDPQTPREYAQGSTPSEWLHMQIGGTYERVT
UniProt Q69WS3: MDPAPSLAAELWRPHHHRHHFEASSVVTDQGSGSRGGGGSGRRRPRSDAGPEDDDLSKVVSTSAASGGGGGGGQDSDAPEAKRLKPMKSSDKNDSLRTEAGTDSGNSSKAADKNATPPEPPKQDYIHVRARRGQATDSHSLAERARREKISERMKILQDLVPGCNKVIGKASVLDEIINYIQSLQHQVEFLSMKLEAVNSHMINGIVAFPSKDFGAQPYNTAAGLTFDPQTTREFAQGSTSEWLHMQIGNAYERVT

B1: OsSLR1 (protein, UniProt Q7G7J6 1-625)
chain: MKREYQEAGGSSGGGSSADMGSCKDKVMAGAAGEEEDVDELLAALGYKVRSSDMADVAQKLEQLEMAMGMGGVSAPGAADDGFVSHLATDTVHYNPSDLSSWVESMLSELNAPLPPIPPAPPAARHASTSSTVTGGGGSGFFELPAAADSSSSTYALRPISLPVVATADPSAADSARDTKRMRTGGGSTSSSSSSSSSLGGGASRGSVVEAAPPATQGAAAANAPAVPVVVVDTQEAGIRLVHALLACAEAVQQENFAAAEALVKQIPTLAASQGGAMRKVAAYFGEALARRVYRFRPADSTLLDAAFADLLHAHFYESCPYLKFAHFTANQAILEAFAGCHRVHVVDFGIKQGMQWPALLQALALRPGGPPSFRLTGVGPPQPDETDALQQVGWKLAQFAHTIRVDFQYRGLVAATLADLEPFMLQPEGEADANEEPEVIAVNSVFELHRLLAQPGALEKVLGTVHAVRPRIVTVVEQEANHNSGSFLDRFTESLHYYSTMFDSLEGGSSGQAELSPPAAGGGGGTDQVMSEVYLGRQICNVVACEGAERTERHETLGQWRNRLGRAGFEPVHLGSNAYKQASTLLALFAGGDGYRVEEKEGCLTLGWHTRPLIATSAWRVAAA

Tests used:
Test in all cases: two-hybrid
[1] = biological target: OsbHLH089 (rice (Oryza sativa)) (UniProt Q84T08)
[2] = biological target: OsbHLH094 (rice (Oryza sativa)) (UniProt Q69WS3)
[3] = biological target: OsbHLH089 (rice (Oryza sativa)) (UniProt Q84T08); remark: listed apart in the source
[4] = biological target: OsbHLH094 (rice (Oryza sativa)) (UniProt Q69WS3); remark: listed apart in the source

Molecule	binding [1]	binding [2]	binding [3]	binding [4]
OsbHLH089 (from UniProt Q84T08 1-265)	binds	binds	–	–
OsbHLH094 (from UniProt Q69WS3 1-256)	–	binds	–	–
B1	–	–	binds	binds
